# Measured values: ChEMBL document CHEMBL4184185, “Dihydrobenzisoxazole-4-one compounds are novel selective inhibitors of aldosterone synthase (CYP11B2) with in vivo activity” (Bioorg Med Chem Lett, 2018)
# Key:
# [1] = Inhibition of cynomolgus monkey adrenal mitochondrial CYP11B2 using corticosterone as substrate after 60 mins in presence of NADPH by mass spectrometric analysis
# [2] = Inhibition of cynomolgus monkey adrenal mitochondrial CYP11B1 using 11-deoxycortisol as substrate after 90 mins in presence of NADPH by mass spectrometric analysis
# [3] = target: T1, Steroid 17-alpha-hydroxylase/17,20 lyase (Homo sapiens, UniProt P05093); experiment: Inhibition of CYP17A1 (unknown origin); type: ADME
# T1 sequence (P05093 whole entry): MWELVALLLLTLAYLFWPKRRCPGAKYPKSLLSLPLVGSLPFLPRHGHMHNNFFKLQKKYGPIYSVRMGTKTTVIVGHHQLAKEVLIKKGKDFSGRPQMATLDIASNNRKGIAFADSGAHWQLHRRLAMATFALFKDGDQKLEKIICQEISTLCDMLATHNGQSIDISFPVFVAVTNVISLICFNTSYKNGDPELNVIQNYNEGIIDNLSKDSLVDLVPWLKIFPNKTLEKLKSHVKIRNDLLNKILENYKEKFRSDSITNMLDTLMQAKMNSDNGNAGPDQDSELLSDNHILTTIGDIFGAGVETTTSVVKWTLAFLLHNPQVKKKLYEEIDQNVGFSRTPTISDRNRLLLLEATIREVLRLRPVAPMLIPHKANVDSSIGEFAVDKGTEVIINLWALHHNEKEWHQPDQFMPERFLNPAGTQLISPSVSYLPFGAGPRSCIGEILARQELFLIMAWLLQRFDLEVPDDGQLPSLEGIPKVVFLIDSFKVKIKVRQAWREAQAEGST
compound,measurement,setting,value
N#Cc1ccc([C@H]2CCCc3cncn32)cc1 [DEXFADROSTAT],pIC50,[1],8.4
same,pIC50,[2],7.9
same,IC50,[3],> 20 µM
